The AC50 is the concentration at which the activity in the assay is half-maximal.

The list shows a part of the results. Shown are side measurements of this screen, not its main read-out; they come without a call. The list favours compounds with an active or inconclusive main result. Words in brackets tell the shape of the fitted curve; partial curves, single points and poor fits give uncertain potencies.

A short description of the assay: Cell signaling CRE-BLA (Fsk stim). The note with it: CHO CRE-bla reporter (cAMP response element driving beta-lactamase), forskolin EC10, beta-lactamase ratio; measured here: 460 nm blue channel. In short, it runs like this: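 qHTS titration format; CRE-bla CHO reporter; stimulus EC10 NKH 477, a water-soluble forskolin. Read: CCF4 460/530 nm ratio. Potency expressed as AC50 for activators or inhibitors.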
Turning to `O=C(CCCn1c(=O)c2sccc2n(CC(=O)NCc2ccco2)c1=O)NCc1ccco1`, the concentration at half-maximal activity (AC50) is 10 µM [rising, partial curve, poor fit].

Turning to `CCCn1c2c(c(O)c(C(=O)Nc3ncccc3C)c1=O)CCCC2`, the AC50 was 1 µM [rising, full curve].

For the molecule `Cc1nc2cnc(N3CCNCC3)nc2n(-c2ccccc2)c1=O`, the AC50 is 12.6 µM [rising, partial curve].

With `O=C(NCCc1ccco1)c1nn(Cc2ccccc2)c(=O)c2ccccc12`, the AC50 is 10 µM [rising, partial curve].

With `CCn1c(SCC(=O)NCCOc2ccccc2)nc2ccccc2c1=O`, the AC50 was 12.6 µM [rising, partial curve].

For `Cc1c(O)ccc(C(=O)COc2ccccc2F)c1O`, the concentration at half-maximal activity (AC50) was 15.8 µM [falling, single point].

Turning to `Cc1ccc(CN2C(=O)CCC2C(=O)NC2CCCC2)cc1` (stereo not drawn), the AC50 was 25.1 µM [rising, single point].

On to `CCC(O)CNc1nc(SC)nc2sc3c(c12)CCN(C)C3` (stereo not drawn), for which the concentration at half-maximal activity (AC50) is 25.1 µM [rising, single point].

Consider `CCn1cc(C(=O)OCC(=O)Nc2ccc(S(=O)(=O)N3CCCC3)cc2)c(=O)c2ccc(C)nc21`, for which the AC50 is 0.0251 µM [rising, full curve, poor fit].

Consider `O=[N+]([O-])c1cccc2cn[nH]c12`, for which the AC50 was 31.6 µM [falling, single point].

`O=C(c1cc(-c2cccnc2)nc2ccc(Br)cc12)N1CCN(c2ncccn2)CC1`: the AC50 was 0.00398 µM [falling, full curve, poor fit].

Consider `CCOC(=O)Cn1nnnc1C(CC)N(Cc1cccs1)Cc1cc2ccc(OC)cc2[nH]c1=O` (stereo not drawn), for which the AC50 was 20 µM [rising, single point].

In the case of `COc1cccc(C(=O)c2cc3ccc(O)cc3oc2=O)c1`, the AC50 was 25.1 µM [rising, single point].

As for `CCOC(=O)CCS(=O)(=O)c1nc(-c2ccccc2)cc(C(F)(F)F)n1`, the AC50 is 7.94 µM [falling, partial curve].

As to `OCCN(Cc1ccccc1)CC1CC=CCC1` (stereo not drawn), the AC50 is 0.316 µM [rising, partial curve].

For the molecule `CC(=O)Nc1nonc1C(=O)N1CCC(C)CC1`, the AC50 is 15.8 µM [rising, single point].

Regarding `COCCCN=C(c1ccco1)n1c(=S)nc(-c2ccco2)n(CCCOC)c1=S`, the concentration at half-maximal activity (AC50) is 12.6 µM [falling, partial curve].

As for `COc1ccc(C2CC(=O)c3cnc(NC(=O)c4ccccc4)nc3C2)cc1OC` (stereo not drawn), the AC50 was 12.6 µM [rising, partial curve].

In the case of `NC(=O)CCn1nc(-c2ccc(Cl)cc2)c2ccccc2c1=O`, the AC50 was 20 µM [rising, single point].

`CCOc1cc(-c2noc(CCC(=O)Nc3cccnc3)n2)ccc1OC`: the AC50 is 5.01 µM [falling, partial curve].

On to `COc1ncc2nc(-c3ccc(F)cc3)c(=O)n(Cc3cccs3)c2n1`, for which the concentration at half-maximal activity (AC50) was 12.6 µM [rising, partial curve].

With `COc1cc(C2=NOC(C(=O)N3CCCc4ccccc43)C2)cc(OC)c1OC` (stereo not drawn), the AC50 is 25.1 µM [rising, single point].

Turning to `CC1=C(C(=O)OCc2ccccc2)C(c2ccc(C(F)(F)F)cc2)NC(=O)N1CCCCCC(=O)O` (stereo not drawn), the AC50 was 12.6 µM [rising, partial curve].

On to `CCC(=O)Nc1cc2c(cc1C(=O)CC)OCCO2`, for which the AC50 was 10 µM [rising, partial curve].

For `Cc1ccc(NC(=O)CN(C)S(=O)(=O)c2cccc3nsnc23)cc1C`, the AC50 is 25.1 µM [falling, single point].

Take `COC(=O)c1ccccc1OCC(=O)NC1CCCCC1`: the AC50 was 25.1 µM [rising, single point].

Turning to `O=S(=O)(c1cccc2nsnc12)N1CCc2ccccc2C1`, the AC50 was 0.158 µM [falling, full curve, poor fit].

`CCOc1ccc(Nc2cc(C)nc3nc(C)nn23)cc1`: the AC50 is 6.31 µM [rising, partial curve].

For the molecule `CCn1c2ccccc2c2nnc(SCc3cc(=O)n4ccsc4n3)nc21`, the AC50 was 2 µM [rising, full curve].

Turning to `COc1ccc(-c2cc(C(=O)Nc3cccc(C(C)=O)c3)no2)cc1`, the AC50 is 0.00398 µM [falling, full curve, poor fit].

Regarding `O=C(Nc1cccc2c1CCCC2)C1CCCN(S(=O)(=O)c2cccc3nonc23)C1` (stereo not drawn), the AC50 was 15.8 µM [falling, partial curve].

With `Cc1cc(Nc2ncc(Cl)cc2Cl)n[nH]1`, the AC50 was 0.00316 µM [falling, full curve, poor fit].

As for `O=C1c2ccccc2-c2ncnc3cccc1c23`, the AC50 is 1.58 µM [rising, partial curve].

Turning to `Cc1cc(C)n(CCc2nc(-c3cc4ccccc4o3)cs2)n1`, the AC50 was 5.01 µM [falling, single point].

In the case of `CCC1(C)Cc2ccccc2-c2c1c(=O)n(Cc1ccccc1)c1nnnn21` (stereo not drawn), the AC50 is 3.16 µM [rising, single point].

For `Cc1cc(NC(=O)Cn2cnc3c2c(=O)n(C)c(=O)n3C)n(-c2ccccc2)n1`, the AC50 was 5.01 µM [falling, single point].

With `COc1ccccc1CNc1cc(-c2cccnc2)ncn1`, the AC50 was 10 µM [rising, partial curve].

Consider `CCNc1ncc2nc(-c3cc(F)cc(F)c3)c(=O)n(CCc3ccccc3)c2n1`, for which the AC50 was 1 µM [rising, full curve].

Consider `CCOC(=O)C(C)n1cnc2c(nnn2Cc2ccc(C)cc2)c1=O` (stereo not drawn), for which the AC50 is 20 µM [rising, partial curve].

With `O=C(Nc1cc(Cl)ccc1O)c1cc2n(n1)C(C(F)(F)F)CC(c1ccc3c(c1)OCO3)N2` (stereo not drawn), the AC50 is 2 µM [falling, full curve, poor fit].

As to `O=C(CSc1nnc(-c2ccccc2F)n1C1CCCCC1)N1CCCC1`, the AC50 is 0.02 µM [falling, partial curve, poor fit].

As to `CN(C(=O)CSc1nnc(NC2CCCCC2)s1)C1CCS(=O)(=O)C1` (stereo not drawn), the AC50 is 3.98 µM [falling, single point].

For `COc1ccc(-n2c(Cc3cccn3C)nnc2SCC(=O)Nc2ccc(Cl)cc2)cc1`, the AC50 was 12.6 µM [falling, partial curve].

`Cc1ccc(N2C(=O)c3ccc(N)cc3C2=O)cc1C`: the AC50 is 7.94 µM [rising, partial curve].

In the case of `c1ccc(-c2nn3nnnc3c3ccccc23)cc1`, the AC50 is 25.1 µM [rising, single point].

As for `Cc1nnc(SCc2nnc(-c3ccccc3Br)o2)n1-c1ccccc1`, the AC50 is 10 µM [rising, single point].

Regarding `CCOC(=O)Cn1c(=O)oc2cc(S(=O)(=O)Nc3ccc(N(CC)CC)cc3C)ccc21`, the AC50 was 20 µM [falling, single point].

With `COc1ccccc1CN1CC[C@@]2(CCCN(C(C)=O)C2)C1`, the half-maximal activity concentration (AC50) was 5.01 µM [falling, single point].

Consider `Cc1cc(C(=O)OCC(=O)N2CCN(c3ccccc3)CC2)c2ccccc2n1`, for which the AC50 is 25.1 µM [rising, single point].

As to `CCOc1cccc(C(=O)Nc2cccc(-c3nnc(-c4ccccc4)o3)c2)c1`, the AC50 was 0.316 µM [falling, single point].

Take `Clc1ccccc1-c1nc(NCc2cccnc2)c2ccccc2n1`: the AC50 was 6.31 µM [rising, full curve].

For the molecule `CCOC(=O)N1CCN(C(=O)C2CCN(S(=O)(=O)N3CCCC3)CC2)CC1`, the AC50 was 0.126 µM [rising, full curve, poor fit].

For `CC(OC(=O)C(NC(=O)c1ccco1)C(C)C)C(=O)Nc1ncc(Cl)cc1Cl` (stereo not drawn), the AC50 was 1 µM [falling, full curve, poor fit].

In the case of `Cc1oc(-c2nc3ccccc3n2C)cc1C(=O)c1ccccc1`, the AC50 was 7.94 µM [rising, partial curve].

Turning to `CN1CCN(c2ncnc3ccc(-c4ccccc4Cl)cc23)CC1`, the AC50 was 7.94 µM [rising, partial curve].

In the case of `CN(CC(=O)NC1CCCCC1)S(=O)(=O)c1ccc(Br)s1`, the half-maximal activity concentration (AC50) is 0.00794 µM [falling, full curve, poor fit].

For `CC(C)OCCCNC(=O)CNC(=O)c1cccs1`, the AC50 is 0.631 µM [falling, partial curve].

In the case of `Cc1ccc(SCc2cc(=O)[nH]c(N3CCCCC3)n2)cc1`, the AC50 is 10 µM [falling, partial curve].

In the case of `CCNc1ncc2nc(-c3cn(C)c4ccccc34)c(=O)n(-c3ccc(OC)cc3)c2n1`, the AC50 is 10 µM [rising, partial curve].

For `O=C1[C@@H]2[C@H](Cc3ccc(O)cc3)N[C@]3(C(=O)Nc4ccccc43)[C@@H]2C(=O)N1c1ccc(F)cc1`, the concentration at half-maximal activity (AC50) is 20 µM [falling, partial curve, poor fit].

With `C=CCn1c(N)c(C(=O)Nc2ccccc2OC)sc1=S`, the half-maximal activity concentration (AC50) is 0.316 µM [rising, partial curve].

Turning to `Cc1cc(C(=O)OCCO)c(C#N)c(N)n1`, the AC50 is 10 µM [rising, single point].

As to `O=C(C1CCN(S(=O)(=O)c2cccnc2)CC1)N1CCN(C2CCCC2)CC1`, the AC50 is 0.00316 µM [falling, full curve].

Consider `O=C1CCCC2=C1C1(CCCC1)N=C(Nc1nc3ccccc3o1)N2`, for which the concentration at half-maximal activity (AC50) was 1 µM [rising, partial curve].

As to `COc1ccc(CCNC(=O)C2CC2)cc1OC`, the AC50 was 0.00316 µM [falling, full curve, poor fit].

As for `CCOc1ccc(-c2cc(CCCC(=O)Nc3cccc(OC)c3)no2)cc1`, the AC50 was 5.01 µM [rising, full curve].

In the case of `Cc1ccccc1-n1nc(C)c2cc(C(=O)NCc3cccnc3)sc21`, the AC50 is 25.1 µM [rising, single point].

Regarding `c1cncc(-c2nc(-n3ccnc3)c3ccccc3n2)c1`, the AC50 is 7.94 µM [rising, partial curve].
